Laboratory results as given in PubChem BioAssay AID540275 (National Center for Advancing Translational Sciences (NCATS), 2011).
Among all 320,000 compounds or so, about 620 (0.19%) were called active. Inconclusive means that the source gave no clear call. Such entries were picked first, then a sample of the others. No stated cut-off is given here; in the data, active means activation above about 80%; inconclusive means between about 30% and that limit; inactive means weaker than that.

Amino acid sequences for entries named in this document (tags omitted).
UniProt Q8NER1, whole entry, looked up: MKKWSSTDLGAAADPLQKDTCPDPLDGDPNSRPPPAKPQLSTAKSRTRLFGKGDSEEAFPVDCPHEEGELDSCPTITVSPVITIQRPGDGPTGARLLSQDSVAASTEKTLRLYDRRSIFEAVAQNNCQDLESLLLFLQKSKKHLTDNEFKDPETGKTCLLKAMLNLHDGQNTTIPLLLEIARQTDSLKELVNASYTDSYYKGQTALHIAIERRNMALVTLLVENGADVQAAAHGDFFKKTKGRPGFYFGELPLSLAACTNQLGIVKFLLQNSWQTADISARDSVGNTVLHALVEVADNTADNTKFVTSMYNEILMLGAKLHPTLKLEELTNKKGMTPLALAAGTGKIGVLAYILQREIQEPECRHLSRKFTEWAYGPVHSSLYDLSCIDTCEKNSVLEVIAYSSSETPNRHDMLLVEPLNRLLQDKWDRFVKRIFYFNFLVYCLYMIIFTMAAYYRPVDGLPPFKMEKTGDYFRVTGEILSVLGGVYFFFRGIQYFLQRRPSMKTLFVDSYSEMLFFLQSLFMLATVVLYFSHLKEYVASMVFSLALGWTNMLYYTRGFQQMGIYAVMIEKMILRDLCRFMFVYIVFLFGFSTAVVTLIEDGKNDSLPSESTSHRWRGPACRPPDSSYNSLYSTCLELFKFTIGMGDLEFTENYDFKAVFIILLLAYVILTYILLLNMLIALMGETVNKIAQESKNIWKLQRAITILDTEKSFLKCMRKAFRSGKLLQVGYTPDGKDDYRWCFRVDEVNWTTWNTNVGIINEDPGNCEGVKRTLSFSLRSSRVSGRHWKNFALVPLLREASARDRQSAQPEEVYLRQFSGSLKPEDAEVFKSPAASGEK

Biological target: Transient receptor potential cation channel subfamily V member 1 (Homo sapiens) (UniProt Q8NER1)
Experiment: HTS Assay for Compounds that Act as Agonists of the Vanilloid Receptor 1; further: 0% is about no effect
Conditions: TRPV1-expressing cells, Fluo-8 calcium influx, agonist mode; at 8.33 µM, active compounds read high
Procedure, shortened: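 TRPV1-expressing cells were cultured overnight at 35.5C and loaded with Fluo-8 calcium dye for 40 to 90 min at room temperature. After a 10 s baseline, compound was added and calcium influx was read kinetically for 3 min (ex 480/em 520 nm).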

SMILES	activation
Cc1ccc(C)n1-c1ncn[nH]1	inactive: 2.75%
CC(=O)Nc1cccc(NC(=O)c2cccc(OCc3ccccc3)c2)c1	inconclusive: 55.9%
c1ccc(CCN(Cc2ccccc2)Cc2nc(C3CC3)no2)cc1	inconclusive: 37%
CC(C)C[C@H](NC(=O)c1nc[nH]c1C(=O)NCC(=O)OCc1ccccc1)C(=O)OCc1ccccc1	inconclusive: 42.2%
CCOC(=O)c1[nH]c2ccc(OC)cc2c1NC(=O)CN1CCSCC1	inconclusive: 60.6%
CCOc1ccc(S(=O)(=O)/N=C(/c2ccccc2)N(C)C)cc1	inactive: -1.82%
CC(C)n1cc(/C=C2\NC(=O)N(c3cccc(Cl)c3)C2=O)c2ccccc21	inactive: -3.17%
Cc1cc(Br)c2[nH]cc(CCNC(=O)c3ccco3)c2c1	inactive: 13.3%
CC1CN(C)C(C)C/C1=N/Oc1ccccc1[N+](=O)[O-] (stereo not drawn)	inactive: -0.0684%
O=C(Nc1ccc(SC(F)(F)F)cc1)c1ccccn1	inconclusive: 67.5%
COc1cccc(CC(=O)NC2CCCN(Cc3ccccc3F)C2)c1 (stereo not drawn)	inconclusive: 32.2%
Cn1c(CCN2CCCCC2)nc2cc([N+](=O)[O-])ccc21	inactive: -8.24%
O=C(Nc1ncc(Cc2cccc(Cl)c2Cl)s1)C1CCCO1 (stereo not drawn)	inconclusive: 33.4%
Cc1ccc(N=C(NOCc2ccc(Cl)cc2Cl)c2nonc2N)c(C)c1	inactive: 15%
CCOC(=O)c1cc(NC(=O)c2ccoc2C)cc(C(=O)OCC)c1	inconclusive: 62.6%
O=C(Nc1ccc(N2CCCCC2)c(Cl)c1)c1cccnc1	inconclusive: 65.2%
COc1ccc(CN2CC(=O)N(c3ccc(C)c(C)c3)C2=S)cc1OC	inactive: 16.3%
O=C(CSc1nc(O)cc(=O)n1-c1ccccc1)Nc1ccc(Br)cn1	inactive: -3.04%
O=[N+]([O-])c1ccccc1NC(=S)N/N=C/c1ccc(O)c(O)c1	inactive: 2.39%
O=C(Nc1ccc(F)cc1)N1CCCN(c2nccc(C(F)(F)F)n2)CC1	inconclusive: 74.4%
O=C(Nc1ccc(Oc2ccccc2)cc1)c1ccco1	inconclusive: 62%
CCCCOc1ccc(C(=O)N2CCCC2)cc1	inconclusive: 32.2%
CCc1ccc(NC(=O)N2CCN(c3ccc(F)cc3)CC2)cc1	inconclusive: 70.8%
COc1ccc(/C=N/NC(=O)c2ccc(NC(=O)C3CCCCC3)cc2)cc1O	inconclusive: 39.6%

SMILES	activation
O=C(c1cc2cc(Br)ccc2o1)N1CCCC1	inconclusive: 53%
O=C(CCC1CCCCC1)Nc1cc(C(F)(F)F)ccc1N1CCOCC1	inconclusive: 49.1%
Cc1cccc(C(=O)Nc2nnc(Cc3ccccc3)s2)c1	inactive: -2.3%
CCN=C1S/C(=C\c2cc(OCC)c(O)cc2Br)C(=O)N1CC	inactive: 8.04%
Cc1cc(Nc2cccc(Cl)c2)nc(NCc2ccccc2)n1	inconclusive: 40.7%
COc1ccc(CCNC(=O)c2ccc3c(c2)OCO3)cc1	inconclusive: 54.7%
Cc1ccccc1Cn1c(Cc2ccccc2)nc2ccccc21	inconclusive: 41.4%
Cc1ccc(C)c(OCc2cc(C(=O)N3CCOCC3)no2)c1	inconclusive: 67.5%
O=C(CNCc1ccccn1)Nc1ccc([N+](=O)[O-])cc1C(=O)Nc1ccccc1F	inactive: -1.1%
O=C(CCN1CCN(c2ccccc2F)CC1)Nc1cccc(F)c1	inconclusive: 41.1%
COc1ccc(CC(=O)OCC(=O)NC2CCCCCC2)cc1OC	inconclusive: 33.2%
CCOC(=O)c1[nH]cnc1C(=O)Nc1cccc(N)n1	inactive: -0.772%
CC(C)CCN1C(Nc2ccccc2)=NC[C@@H]1CC(C)C	inactive: 1.16%
CC(CC(=O)Nc1cccc(Cl)c1)c1ccccc1 (stereo not drawn)	inconclusive: 30.5%
COC(=O)C1=C(C)NC(C)=C(C(=O)OC)C1C(=O)OCc1nnc(-c2ccccc2Cl)o1	inactive: -0.299%
O=C(NC(=S)N1CCN(c2ccc(Cl)cc2[N+](=O)[O-])CC1)c1cccs1	inconclusive: 38.5%
COc1cccc(CC(=O)Nc2ccc3c(c2)CCC3)c1	inconclusive: 39.9%
O=C(COC(=O)C1COc2ccccc2O1)NC(=O)NC1CCCC1 (stereo not drawn)	inactive: 1.23%
O=C(Nc1ccc(N2CCCCC2)cc1)c1cccnc1Cl	inconclusive: 65.6%
Cc1ccc(-c2nnc(-c3cccc(NC(=O)c4cccs4)c3)o2)cc1	inconclusive: 52.8%
CC(C(=O)Nc1ccc(C#N)cc1)N(C)CC(=O)Nc1ccccc1Br (stereo not drawn)	inconclusive: 67%
CCCOc1ccc(CCN2CCC(=O)NC2=O)cc1C	inconclusive: 36%
CCn1nc(C(=O)Nc2cccc(C(F)(F)F)c2)c(Cl)c1Cl	inconclusive: 42%
CC1=CCC(C(=O)O)(C(=O)N/N=C/c2cccs2)C(c2ccc([N+](=O)[O-])cc2)C1 (stereo not drawn)	inconclusive: 30.5%

SMILES	activation
COc1c(Cl)cc(C(=O)Nc2ccccc2-c2ccccc2)cc1Cl	inconclusive: 33.2%
COCCSc1nnc(NC(=O)Cc2ccc(OC)cc2)s1	inconclusive: 31.8%
Cc1ccc(SCC(=O)Nc2cc([N+](=O)[O-])ccc2O)cc1	inactive: 4.58%
Fc1ccc(CSc2ccc(-c3cccs3)nn2)cc1	inconclusive: 45.4%
CCOC(=O)c1ccc(Nc2c(OCC)c(=O)c2=O)cc1	inconclusive: 41.8%
Cc1ccc(C2(CCN)CCOC(C(C)C)C2)cc1 (stereo not drawn)	inactive: 11.8%
O=C(NCCOC(=O)c1ccccc1)c1ccccc1	inconclusive: 39.4%
Cc1ccc(SC(C)C(=O)NCc2ccncc2)cc1 (stereo not drawn)	inconclusive: 44.9%
COc1ccc(C)cc1NC(=O)c1cc(S(=O)(=O)N2CCCCC2)ccc1N1CCOCC1	inactive: 20.6%
CCO[C@H]1OC(C(=O)NCc2ccccc2)=C[C@@H](C2CCCCC2)[C@@H]1CCCO	inconclusive: 32.3%
Cc1cccc(C)c1OCC(=O)OCC(=O)c1ccc2c(c1)NC(=O)CO2	inconclusive: 35.4%
Cc1noc(C)c1CSc1ncnc2sc(C)c(C)c12	inactive: 5.98%
O=C(/C=C/c1cccc(Oc2ccccc2)c1)N1CCOCC1	inconclusive: 74.7%
O=C(COC(=O)/C=C/c1ccc(C(F)(F)F)cc1)NC1CC1	inconclusive: 42.4%
O=C(Nc1ccc(N2CCOCC2)cc1)C1CCN(S(=O)(=O)c2ccccc2F)CC1	inconclusive: 42.5%
COc1cc(NC(=S)NC(=O)c2ccccc2C)ccc1NC(=O)c1cccs1	inactive: 3.29%
O=C(Nc1ccnn1C1CCN(C/C=C/c2ccccc2)CC1)c1cccc(F)c1	inactive: -2.98%
O=C(COc1ccc2ccccc2c1)N1CCN(c2ccccc2O)CC1	inconclusive: 37.8%
N#C/C(=N\Nc1ccc(F)cc1)C(=N)N1CCCCC1	inconclusive: 41.8%
Cc1cc(OCC(=O)N(C)C2CCCCC2)cc(C)c1Cl	inconclusive: 48.2%
COC(=O)c1cc(S(=O)(=O)N2CCN(c3cccc(C)c3)C(C)C2)c[nH]1 (stereo not drawn)	inconclusive: 34%
COc1cc2ccccc2cc1C(=O)Nc1ccc(O)cc1	inconclusive: 32.1%
CC(=O)c1c(C)[nH]c(C(=O)NCCc2ccc(Cl)cc2)c1C	inconclusive: 44.4%
CCOC(=O)N1CCN(CC(=O)Nc2nc3ccc(OC)cc3s2)CC1	inactive: 8.94%

SMILES	activation
O=C1CC2(CCN(C(=O)c3ccccc3F)CC2)Oc2ccccc21	inconclusive: 54.6%
Cc1ccc(-c2nnc(N3CCC(C)CC3)c3ccccc23)cc1	inactive: 21.7%
COc1ccc(C(=O)NC2CCN(C(=S)NCCc3ccccc3)CC2)cc1	inconclusive: 34.5%
O=C(CN1CCN(c2ccccc2F)CC1)Nc1ccc2c(c1)CCC2	inconclusive: 33.8%
CCC1=Nc2cc(C(=O)NCCN3CCOCC3)ccc2Sc2ccccc21	inconclusive: 32.3%
C=C(c1ccc(OC)cc1)c1ccc(OC)cc1	inactive: 0.374%
C=CCOc1ccc(/C=N/NC(=O)CC(=O)NC2CCCCC2)cc1	inactive: -4.02%
CCOC(=O)CSc1c(-c2ccc(Cl)cc2)[nH]c2ccccc12	inconclusive: 31.1%
C=CCN(C(=O)c1csnn1)C(C(=O)NC1CCCCC1)c1ccc(C)cc1 (stereo not drawn)	inconclusive: 51.1%
O=C(O)c1ccc(Nc2c3ccccc3nc3ccccc23)cc1	inactive: 2.25%
CCN1CCN(c2ccc(S(=O)(=O)N3CCCCC3)cc2NC(=O)C(C)Oc2ccc(F)cc2)CC1 (stereo not drawn)	inconclusive: 45%
CC(C)(C)c1ccc(NC(=O)c2ccccc2)c([N+](=O)[O-])c1	inconclusive: 46.2%
COc1ccc(CC(=O)O/N=C(\N)Cc2ccc(OC)cc2)cc1	inconclusive: 31.5%
CCCN1CCN(C(c2cc3cc(OCC)ccc3[nH]c2=O)c2nnnn2C2CCCCC2)CC1 (stereo not drawn)	inactive: 16.5%
O=C(NCCc1ccc(F)cc1)c1n[nH]c2ccccc12	inconclusive: 58.4%
C=C(C)CSc1nc(N)c(C#N)c(-c2ccc(C)cc2)c1C#N	inconclusive: 30.7%
CCC1(C)CC2(CCCN(CCC(O)(c3ccccc3)c3ccccc3)C2)CCO1 (stereo not drawn)	inconclusive: 33.1%
OCCCc1nc2ccccc2n1CCc1ccccc1	inconclusive: 31.1%
COC(=O)/C=C1\S/C(=N\N=C\CC(=O)OC)NC1=O	inactive: -4.55%
CCN(C(=O)c1cccc(NC(=O)c2ccccc2)c1)C1CCCCC1	inconclusive: 34.6%
CCNC(=O)CCCOc1ccc(Cl)cc1Cl	inconclusive: 34.7%

7 compounds picked at random from those above:
SMILES	activation
C=CCN(C(=O)c1csnn1)C(C(=O)NC1CCCCC1)c1ccc(C)cc1 (stereo not drawn)	inconclusive: 51.1%
O=C(CN1CCN(c2ccccc2F)CC1)Nc1ccc2c(c1)CCC2	inconclusive: 33.8%
OCCCc1nc2ccccc2n1CCc1ccccc1	inconclusive: 31.1%
COc1ccc(CC(=O)O/N=C(\N)Cc2ccc(OC)cc2)cc1	inconclusive: 31.5%
O=C(NCCc1ccc(F)cc1)c1n[nH]c2ccccc12	inconclusive: 58.4%
CCOC(=O)CSc1c(-c2ccc(Cl)cc2)[nH]c2ccccc12	inconclusive: 31.1%
C=C(C)CSc1nc(N)c(C#N)c(-c2ccc(C)cc2)c1C#N	inconclusive: 30.7%
